Measured values as given in US11000506B2, “Envenomation therapies and related pharmaceutical compositions, systems and kits” (OPHIREX, INC, priority 2014, dated 2021).
At least one structure is not confirmed: it was looked up by name or label, or the drawing left a doubt.

Test system: E. carinatus venom MP
Experiment: HTS for inhibitors of E. carinatus venom MP
Format: biochemical
Conditions: compounds approximately 10 μM/well
Experimental: Background. Phospholipase A2 (PLA2) catalyzes the hydrolysis of phospholipids at the sn-2 position yielding a free fatty acid and a lysophospholipid. The release of arachidonic acid from membrane phospholipids by PLA is believed to be a key step in the control of eicosanoid production within the cell. The Bee Venom PLA2 Control was a 100 μg/ml solution of bee venom PLA2 is supplied as a positive control in the kit (Abcam kit catalog number ab133089). Substrate for MP was DQ Gelatin and assay run per EnzChek gelatinase assay manufacturers instructions. Venom MP activity was not optimized in initial experiments, but reaction rates were during experiments performed by an independently contracted laboratory. SP assay was performed using Nα-Benzoyl-L-arginine-7-amido-4-methylcoumarin hydrochloride. These kits were stored as specified if stored at −20° C. Unless otherwise specified, in the case of my experiments, only crude, unfractionated lyophilized venom purchased from Sigma or the Miami Serpentarium were used. […] PBS was the buffer in the case of MP and SP assays and absorbance measured at 495 nm. […]
Small molecule screening and dose-response experiments took place in the Yale Center for Molecular Discovery. […] PerkinElmer EnVision (3) and Tecan infinite M1000 (2) plate readers sensitively measure absorbance, fluorescence, fluorescence polarization and luminescence in 96- and 384-well plate formats. […]

With `C=CC1=C(C(=O)O)N2C(=O)[C@@H](NC(=O)/C(=N\OCC(=O)O)c3csc(N)n3)[C@H]2SC1` [Cefixime] the “% Effect on E. carinatus venom MP” value was 67%.
